# Reference: the supplement of paper PMC4604168 (melanoma cell lines)
# The list shows a part of the results. Single values are uncertain, as repeats are few or missing.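 Cells were imaged in 1,536-well plates, and nuclei stained with an antibody against cleaved PARP were counted against all DNA-stained nuclei to give the apoptosis fraction. Screening doses were chosen to leave most cells alive, and resting and induced cleaved-PARP levels differ strongly between cell lines.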
# How the values were obtained:
# Experiment in all cases: cleaved PARP positive nuclei fraction relative to DMSO control; melanoma cells; higher = more apoptosis
# Conditions in all cases: library dose: low library concentration; 72 h
# MZ2-MEL = test system: MZ2-MEL
# MeWo = test system: MeWo
# RPMI7951 = test system: RPMI7951
# RVH-421 = test system: RVH-421
# SkMel28 = test system: SkMel28
# SkMel2 = test system: SkMel2
# SkMel30 = test system: SkMel30
# UACC62 = test system: UACC62
# WM115 = test system: WM115
# WM1716 = test system: WM1716
# WM1745 = test system: WM1745
# WM3526 = test system: WM3526
# WM3619 = test system: WM3619
# WM451Lu = test system: WM451Lu
SMILES,cleaved PARP positive nuclei fraction (MZ2-MEL) [%],cleaved PARP positive nuclei fraction (MeWo) [%],cleaved PARP positive nuclei fraction (RPMI7951) [%],cleaved PARP positive nuclei fraction (RVH-421) [%],cleaved PARP positive nuclei fraction (SkMel28) [%],cleaved PARP positive nuclei fraction (SkMel2) [%],cleaved PARP positive nuclei fraction (SkMel30) [%],cleaved PARP positive nuclei fraction (UACC62) [%],cleaved PARP positive nuclei fraction (WM115) [%],cleaved PARP positive nuclei fraction (WM1716) [%],cleaved PARP positive nuclei fraction (WM1745) [%],cleaved PARP positive nuclei fraction (WM3526) [%],cleaved PARP positive nuclei fraction (WM3619) [%],cleaved PARP positive nuclei fraction (WM451Lu) [%]
"Cc1ccc(Nc2nccc(N(C)c3ccc4c(C)n(C)nc4c3)n2)cc1S(N)(=O)=O [Pazopanib] + Cc1cn(-c2cc(NC(=O)c3ccc(C)c(Nc4nccc(-c5cccnc5)n4)c3)cc(C(F)(F)F)c2)cn1 [nilotinib] (first compound 0.4 µM, partner dose 0.2 µM)",56.8,57.5,81.7,137,129,49.7,95.8,165,30.1,69.4,100,319,97.7,49
"COc1cc([C@@H]2c3cc4c(cc3[C@@H](O[C@@H]3O[C@@H]5CO[C@@H](C)O[C@H]5[C@H](O)[C@H]3O)[C@H]3COC(=O)[C@H]23)OCO4)cc(OC)c1O [etoposide] + CCCCCCCCc1ccc(CCC(N)(CO)CO)cc1 [fingolimod] (first compound 0.02 µM, partner dose 2 µM)",54.5,237,118,235,97.5,105,49.7,59.7,125,–,124,206,138,96.2
"N#CC[C@H](C1CCCC1)n1cc(-c2ncnc3[nH]ccc23)cn1 [ruxolitinib] + CS(=O)(=O)CCNCc1ccc(-c2ccc3ncnc(Nc4ccc(OCc5cccc(F)c5)c(Cl)c4)c3c2)o1 [lapatinib] (first compound 1 µM, partner dose 0.8 µM)",56.4,148,52.4,84.3,152,172,51.6,–,101,133,83.9,70,96.5,234
"Cc1cc(Nc2cc(N3CCN(C)CC3)nc(Sc3ccc(NC(=O)C4CC4)cc3)n2)n[nH]1 [Tozasertib] + C=C(c1ccc(C(=O)O)cc1)c1cc2c(cc1C)C(C)(C)CCC2(C)C [Bexarotene] (first compound 0.006 µM, partner dose 2 µM)",157,24.6,216,300,104,38.1,131,82.1,51,51.3,94.6,46.2,110,34.8
"Cc1cc(Nc2cc(N3CCN(C)CC3)nc(Sc3ccc(NC(=O)C4CC4)cc3)n2)n[nH]1 [Tozasertib] + CC(=O)c1c(C)c2cnc(Nc3ccc(N4CCNCC4)cn3)nc2n(C2CCCC2)c1=O [palbociclib] (first compound 0.006 µM, partner dose 0.04 µM)",65.9,135,131,49.2,86.5,61.9,121,166,218,100,119,68.8,137,117
"Cc1ccc(Nc2nccc(N(C)c3ccc4c(C)n(C)nc4c3)n2)cc1S(N)(=O)=O [Pazopanib] + Nc1ccn([C@@H]2O[C@H](CO)[C@@H](O)C2(F)F)c(=O)n1 [gemcitabine] (first compound 0.4 µM, partner dose 0.0004 µM)",178,21.7,57.5,57.4,43.5,49,73.3,105,69.6,54.2,115,117,104,60.2
"O=C(/C=C/c1cccnc1)NCCCCC1CCN(C(=O)c2ccccc2)CC1 + COCC[n+]1c2c(n(Cc3cnccn3)c1C)C(=O)c1ccccc1C2=O [YM155] (first compound 0.01 µM, partner dose 0.0004 µM)",511,138,29.6,41.6,200,1720,97.2,55,108,105,100,43.3,110,25.6
"COc1cc([C@@H]2c3cc4c(cc3[C@@H](O[C@@H]3O[C@@H]5CO[C@@H](C)O[C@H]5[C@H](O)[C@H]3O)[C@H]3COC(=O)[C@H]23)OCO4)cc(OC)c1O [etoposide] + C=CCNC1=C2C[C@@H](C)C[C@H](OC)[C@H](O)[C@@H](C)/C=C(\C)[C@H](OC(N)=O)[C@@H](OC)/C=C\C=C(/C)C(=O)NC(=CC1=O)C2=O [Tanespimycin] (first compound 0.02 µM, partner dose 0.002 µM)",102,98.9,34.1,73.5,38.4,43.6,120,68.4,–,28.9,101,140,104,25.9
"N#CC[C@H](C1CCCC1)n1cc(-c2ncnc3[nH]ccc23)cn1 [ruxolitinib] + C[C@]1(c2nc3c(C(N)=O)cccc3[nH]2)CCCN1 [Veliparib] (first compound 1 µM, partner dose 1.4 µM)",113,217,159,813,36.6,–,53.3,98.3,103,402,107,64.5,94.8,73.2
